PubChem BioAssay AID1259308 | NCATS, 2017
Shown is one part, drawn at random, of about 59,000 reagents. About 1,510 of them (2.6%) count as active. 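Calls use total luciferase alone and ignore viability, so some active siRNAs may act by altering cell number.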 Reagents against one gene are numbered here.

Aim: 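Knock-downs that increase output of a recombinant reporter protein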 (primary screen)
Cell system: human HEK293 embryonic kidney cells stably expressing firefly luciferase (HEK-CMV-Luc2-Hygro)
Reagent: single siRNA against human genes, 0.8 pmol siRNA per well
Timing: 72 h
Measured: 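Luciferase light (ONE-Glo) measured on one replicate plate set and viability (CellTiter-Glo) on the other, scaled to a negative control siRNA, with robust z-scores and luciferase per cell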
Direction: total luciferase, z-score and total luciferase, % of control: higher = more reporter protein produced; luciferase per cell, z-score: higher = more reporter output per viable cell; viable cells, % of control: higher = more viable cells
Hit rule: 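An siRNA counts as active if its total luciferase robust z-score exceeds 3; genes with two or more such siRNAs out of three were retested with fresh siRNAs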
Calls: active = raised luciferase; inactive = no rise

no.	gene knocked down	reagent	total luciferase, z-score	total luciferase, % of control	luciferase per cell, z-score	viable cells, % of control	Outcome
1	ZNF440 (zinc finger protein 440)	1	-0.584	70.3	-0.883	99.1	inactive
2	ZNF440 (zinc finger protein 440)	2	-0.464	72.7	-0.586	94.7	inactive
3	ZNF440 (zinc finger protein 440)	3	-1.57	50.7	-0.175	59.4	inactive
4	SSX6P (SSX family member 6, pseudogene)	1	4.78	177	2.58	100	active
5	SSX6P (SSX family member 6, pseudogene)	2	0.0988	83.9	-0.144	97.3	inactive
6	SSX6P (SSX family member 6, pseudogene)	3	0.244	86.7	-0.398	108	inactive
7	TNP2 (transition protein 2)	1	0.794	97.7	0.863	87	inactive
8	TNP2 (transition protein 2)	2	-1.33	55.4	-0.448	69.6	inactive
9	TNP2 (transition protein 2)	3	3.45	151	2.67	83.2	active
10	HSPB6 (heat shock protein family B (small) member 6)	1	1.15	105	1.62	76.3	inactive
11	HSPB6 (heat shock protein family B (small) member 6)	2	-0.24	77.1	-0.675	103	inactive
12	HSPB6 (heat shock protein family B (small) member 6)	3	0.408	90	-0.295	109	inactive
13	RUSC2 (RUN and SH3 domain containing 2)	1	0.163	85.1	0.0088	94.9	inactive
14	RUSC2 (RUN and SH3 domain containing 2)	2	0.15	84.9	-0.287	102	inactive
15	RUSC2 (RUN and SH3 domain containing 2)	3	0.352	88.9	0.5	87.1	inactive
16	C11orf21 (chromosome 11 open reading frame 21)	1	1.04	103	1.15	84.6	inactive
17	C11orf21 (chromosome 11 open reading frame 21)	2	-0.196	78	-0.299	94.3	inactive
18	C11orf21 (chromosome 11 open reading frame 21)	3	-0.124	79.4	-0.816	110	inactive
19	CCNH (cyclin H)	1	-0.442	73.1	-0.662	97.2	inactive
20	CCNH (cyclin H)	2	0.517	92.2	-0.107	106	inactive
21	CCNH (cyclin H)	3	-0.4	73.9	-0.321	89.9	inactive
22	GALK2 (galactokinase 2)	1	-0.415	73.6	0.198	78.1	inactive
23	GALK2 (galactokinase 2)	2	0.262	87.1	-0.502	111	inactive
24	GALK2 (galactokinase 2)	3	-0.0181	81.5	-0.422	102	inactive
25	TPO (thyroid peroxidase)	1	1.51	112	0.467	111	inactive
26	TPO (thyroid peroxidase)	2	-1.24	57.1	-1.44	93.3	inactive
27	TPO (thyroid peroxidase)	3	0.761	97	0.27	101	inactive
28	AVPR1B (arginine vasopressin receptor 1B)	1	1.37	109	0.552	105	inactive
29	AVPR1B (arginine vasopressin receptor 1B)	2	1.55	113	1.43	86.6	inactive
30	AVPR1B (arginine vasopressin receptor 1B)	3	-0.604	69.9	-0.16	81.4	inactive
31	PNN (pinin, desmosome associated protein)	1	-0.696	68.1	0.319	69.9	inactive
32	PNN (pinin, desmosome associated protein)	2	1.17	105	1.69	75.2	inactive
33	PNN (pinin, desmosome associated protein)	3	-0.787	66.2	-0.871	93.1	inactive
34	UQCRB (ubiquinol-cytochrome c reductase binding protein)	1	0.0366	82.6	0.823	74.3	inactive
35	UQCRB (ubiquinol-cytochrome c reductase binding protein)	2	-0.552	70.9	-0.829	98.6	inactive
36	UQCRB (ubiquinol-cytochrome c reductase binding protein)	3	-1.64	49.3	-1.88	90.5	inactive
37	IGF2BP3 (insulin like growth factor 2 mRNA binding protein 3)	1	-2.43	33.6	-0.208	39.7	inactive
38	IGF2BP3 (insulin like growth factor 2 mRNA binding protein 3)	2	-0.779	66.4	-0.0538	75.2	inactive
39	IGF2BP3 (insulin like growth factor 2 mRNA binding protein 3)	3	-0.0615	80.7	-0.0174	90.6	inactive
40	PRR19 (proline rich 19)	1	-1.03	61.5	-1.19	93.8	inactive
41	PRR19 (proline rich 19)	2	0.325	88.4	-0.266	106	inactive
42	PRR19 (proline rich 19)	3	-0.0617	80.7	-0.191	94.8	inactive
43	WWC2 (WW and C2 domain containing 2)	1	-1.48	52.5	-2.53	114	inactive
44	WWC2 (WW and C2 domain containing 2)	2	0.0616	83.1	0.141	89.5	inactive
45	WWC2 (WW and C2 domain containing 2)	3	-0.593	70.1	-0.165	81.8	inactive
46	UXT (ubiquitously expressed prefoldin like chaperone)	1	-0.459	72.8	-0.633	96	inactive
47	UXT (ubiquitously expressed prefoldin like chaperone)	2	-0.622	69.5	-0.21	82.1	inactive
48	UXT (ubiquitously expressed prefoldin like chaperone)	3	0.394	89.7	0.11	97.4	inactive
49	GOPC (golgi associated PDZ and coiled-coil motif containing)	1	0.464	91.1	0.0715	99.9	inactive
50	GOPC (golgi associated PDZ and coiled-coil motif containing)	2	-0.375	74.4	-0.319	90.4	inactive
51	GOPC (golgi associated PDZ and coiled-coil motif containing)	3	0.866	99.1	0.784	90.1	inactive
52	ADAMTS13 (ADAM metallopeptidase with thrombospondin type 1 motif 13)	1	1.75	117	2.24	72.3	inactive
53	ADAMTS13 (ADAM metallopeptidase with thrombospondin type 1 motif 13)	2	-0.199	77.9	-0.18	91.3	inactive
54	ADAMTS13 (ADAM metallopeptidase with thrombospondin type 1 motif 13)	3	0.115	84.2	-0.292	102	inactive
55	R3HDM1 (R3H domain containing 1)	1	-0.0182	81.5	0.671	76.3	inactive
56	R3HDM1 (R3H domain containing 1)	2	-0.62	69.6	-0.273	83.5	inactive
57	R3HDM1 (R3H domain containing 1)	3	0.171	85.3	0.401	85.8	inactive

4 consecutive entries from above:
no.	gene knocked down	reagent	total luciferase, z-score	total luciferase, % of control	luciferase per cell, z-score	viable cells, % of control	Outcome
43	WWC2 (WW and C2 domain containing 2)	1	-1.48	52.5	-2.53	114	inactive
44	WWC2 (WW and C2 domain containing 2)	2	0.0616	83.1	0.141	89.5	inactive
45	WWC2 (WW and C2 domain containing 2)	3	-0.593	70.1	-0.165	81.8	inactive
46	UXT (ubiquitously expressed prefoldin like chaperone)	1	-0.459	72.8	-0.633	96	inactive
